According to article PMC7862700:
The entries are a selection whose mix differs from that of the whole data set. At the low end of the ranking the order means little.

Legend:
Assay in all cases: DAPPL (digital affinity profiling via proximity ligation, sequencing)
Details in all cases: 10 mM Tris-HCl pH 7.5, 50 mM NaCl, 1 mM DTT, 4% glycerol, room temperature, 30 min; GST-TFs on glutathione beads, 16-mer random dsDNA library, 0.1% …; high values mean tight binding; double strand, one strand shown; scale: fold enrichment (6-mer frequency, TF over GST control)
[1] = target: T1, ELK1 (UniProt P19419)
T1 sequence: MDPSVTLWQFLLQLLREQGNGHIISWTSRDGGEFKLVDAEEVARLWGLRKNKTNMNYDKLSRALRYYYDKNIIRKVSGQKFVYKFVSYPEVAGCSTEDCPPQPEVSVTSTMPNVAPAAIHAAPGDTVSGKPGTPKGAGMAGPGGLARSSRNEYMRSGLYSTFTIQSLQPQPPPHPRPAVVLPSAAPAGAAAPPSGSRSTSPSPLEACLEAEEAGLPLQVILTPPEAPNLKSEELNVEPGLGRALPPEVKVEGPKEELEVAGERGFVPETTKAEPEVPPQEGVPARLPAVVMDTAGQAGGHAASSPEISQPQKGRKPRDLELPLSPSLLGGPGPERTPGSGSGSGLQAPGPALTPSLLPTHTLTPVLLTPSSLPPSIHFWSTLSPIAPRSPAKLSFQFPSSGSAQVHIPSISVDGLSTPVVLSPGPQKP

[2] = target: T2, ELK3 (UniProt P41970)
T2 sequence: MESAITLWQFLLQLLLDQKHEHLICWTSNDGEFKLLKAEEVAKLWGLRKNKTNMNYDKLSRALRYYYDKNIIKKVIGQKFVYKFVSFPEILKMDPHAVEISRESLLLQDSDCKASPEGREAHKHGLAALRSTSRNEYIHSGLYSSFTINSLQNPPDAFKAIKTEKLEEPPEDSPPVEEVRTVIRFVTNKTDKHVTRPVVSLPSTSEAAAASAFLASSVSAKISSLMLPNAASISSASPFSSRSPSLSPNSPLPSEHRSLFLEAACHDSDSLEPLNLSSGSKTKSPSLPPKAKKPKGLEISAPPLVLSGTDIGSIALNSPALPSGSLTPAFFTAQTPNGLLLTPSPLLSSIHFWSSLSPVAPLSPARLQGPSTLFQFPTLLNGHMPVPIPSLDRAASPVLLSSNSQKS

[3] = target: T3, SPIC (UniProt Q8N5J4)
T3 sequence: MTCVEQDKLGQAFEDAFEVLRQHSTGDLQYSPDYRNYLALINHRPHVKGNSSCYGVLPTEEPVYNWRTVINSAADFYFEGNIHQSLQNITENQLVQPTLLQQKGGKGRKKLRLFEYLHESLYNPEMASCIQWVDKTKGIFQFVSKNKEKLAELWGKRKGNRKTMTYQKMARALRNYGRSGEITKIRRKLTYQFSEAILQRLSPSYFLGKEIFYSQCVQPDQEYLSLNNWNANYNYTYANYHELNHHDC

[4] = target: T4, ETS2 (UniProt P15036)
T4 sequence: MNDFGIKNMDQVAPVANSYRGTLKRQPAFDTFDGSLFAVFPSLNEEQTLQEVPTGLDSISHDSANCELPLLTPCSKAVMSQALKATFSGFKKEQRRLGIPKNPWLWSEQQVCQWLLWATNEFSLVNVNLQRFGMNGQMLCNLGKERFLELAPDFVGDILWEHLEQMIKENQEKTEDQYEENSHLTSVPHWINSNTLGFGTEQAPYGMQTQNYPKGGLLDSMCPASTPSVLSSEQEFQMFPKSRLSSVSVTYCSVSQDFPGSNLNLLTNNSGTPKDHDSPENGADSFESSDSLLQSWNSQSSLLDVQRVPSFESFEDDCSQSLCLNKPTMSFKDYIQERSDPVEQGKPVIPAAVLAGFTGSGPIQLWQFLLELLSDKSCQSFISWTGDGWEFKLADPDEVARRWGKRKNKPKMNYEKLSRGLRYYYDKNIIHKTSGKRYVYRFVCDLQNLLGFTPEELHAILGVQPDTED

[5] = target: T5, ETV3 (UniProt P41162-2)
T5 sequence: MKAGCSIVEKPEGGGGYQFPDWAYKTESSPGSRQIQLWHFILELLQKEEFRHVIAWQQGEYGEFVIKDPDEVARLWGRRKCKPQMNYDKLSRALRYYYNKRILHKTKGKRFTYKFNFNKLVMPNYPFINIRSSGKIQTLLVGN

Row | Sequence | binding signal [1] | binding signal [2] | binding signal [3] | binding signal [4] | binding signal [5]
1 | GAGTAT | 0.65 | 0.552 | 0.575 | 0.592 | 0.547
2 | GACAGT | 0.466 | 0.494 | 0.468 | 0.448 | 0.445
3 | CATGAG | 0.674 | 0.785 | 0.722 | 0.728 | 0.702
4 | TAGCCG | 0.857 | 0.809 | 0.86 | 0.873 | 0.872
5 | CAGGTC | 0.748 | 0.671 | 0.592 | 0.682 | 0.687
6 | CAGTCG | 0.176 | 0.183 | 0.202 | 0.176 | 0.179
7 | GGTGGA | 0.626 | 0.583 | 0.677 | 0.609 | 0.565
8 | TCGTGT | 0.846 | 0.789 | 0.696 | 0.755 | 0.767
9 | GCCGTG | 0.233 | 0.229 | 0.202 | 0.238 | 0.267
10 | GCATGG | 0.885 | 0.892 | 0.886 | 0.863 | 0.86
11 | CCAGTT | 0.631 | 0.63 | 0.631 | 0.625 | 0.658
12 | GGCGTG | 0.341 | 0.345 | 0.337 | 0.319 | 0.305
13 | ACCGTA | 0.93 | 0.949 | 0.816 | 0.884 | 0.851
14 | CAGAGT | 0.608 | 0.604 | 0.617 | 0.652 | 0.618
15 | CGTGGT | 0.582 | 0.64 | 0.592 | 0.564 | 0.594
16 | CAGCGG | 0.461 | 0.508 | 0.478 | 0.479 | 0.412
17 | GTCGCC | 0.893 | 0.881 | 0.869 | 0.892 | 0.904
18 | AGGTCG | 0.551 | 0.47 | 0.451 | 0.523 | 0.539
19 | GTTAGG | 0.825 | 0.791 | 0.71 | 0.834 | 0.744
20 | GAGGGC | 0.626 | 0.559 | 0.586 | 0.625 | 0.561
21 | AGGCGA | 0.593 | 0.515 | 0.607 | 0.56 | 0.498
22 | TCGGTC | 0.578 | 0.577 | 0.638 | 0.521 | 0.533
23 | GTCGCG | 0.672 | 0.601 | 0.705 | 0.639 | 0.617
24 | AGCGGG | 0.491 | 0.518 | 0.489 | 0.472 | 0.451
25 | TCGGCC | 0.753 | 0.671 | 0.664 | 0.702 | 0.743

Row | Sequence | binding signal [1] | binding signal [2] | binding signal [3] | binding signal [4] | binding signal [5]
26 | TGTCGG | 0.344 | 0.318 | 0.391 | 0.362 | 0.341
27 | CAGAGG | 0.61 | 0.596 | 0.605 | 0.678 | 0.624
28 | TCAGGG | 0.921 | 0.653 | 0.812 | 0.908 | 0.753
29 | GAGATT | 0.706 | 0.672 | 0.709 | 0.663 | 0.634
30 | GCGAGG | 0.602 | 0.606 | 0.637 | 0.616 | 0.578
31 | AGCAGG | 0.907 | 0.953 | 0.823 | 0.946 | 0.936
32 | GGCGCA | 0.598 | 0.602 | 0.623 | 0.563 | 0.578
33 | TGAGAT | 0.692 | 0.648 | 0.658 | 0.699 | 0.668
34 | GCATTG | 0.841 | 0.891 | 0.792 | 0.877 | 0.805
35 | GCACGT | 0.746 | 0.753 | 0.76 | 0.855 | 0.783
36 | CCAGCG | 0.667 | 0.741 | 0.668 | 0.678 | 0.682
37 | GCTGAG | 0.654 | 0.694 | 0.631 | 0.667 | 0.627
38 | CAAGAC | 0.862 | 0.822 | 0.853 | 0.834 | 0.816
39 | GTTAGA | 0.765 | 0.736 | 0.77 | 0.739 | 0.747
40 | GCCGAG | 0.707 | 0.678 | 0.645 | 0.622 | 0.67
41 | GGCCAG | 0.445 | 0.522 | 0.418 | 0.435 | 0.449
42 | CGCAGT | 0.751 | 0.762 | 0.701 | 0.737 | 0.75
43 | AGTGAT | 0.902 | 0.947 | 0.9 | 0.88 | 0.876
44 | GGCGAA | 0.747 | 0.71 | 0.757 | 0.788 | 0.62
45 | CGTGCA | 0.707 | 0.802 | 0.709 | 0.688 | 0.67
46 | CGGTGC | 0.666 | 0.627 | 0.579 | 0.721 | 0.731
47 | GCGCAT | 0.867 | 0.89 | 0.761 | 0.855 | 0.882
48 | CGGTCC | 0.944 | 1.03 | 0.984 | 0.952 | 0.892
49 | ACCATG | 0.868 | 0.89 | 0.792 | 0.81 | 0.846
50 | GCGGTG | 0.498 | 0.47 | 0.584 | 0.535 | 0.53

Excerpt, nos. 37 to 38
Row | Sequence | binding signal [1] | binding signal [2] | binding signal [3] | binding signal [4] | binding signal [5]
37 | GCTGAG | 0.654 | 0.694 | 0.631 | 0.667 | 0.627
38 | CAAGAC | 0.862 | 0.822 | 0.853 | 0.834 | 0.816
